These are yes or no findings as the source states them, for the method shown. In cells and extracts the contact can be indirect. Some entries that bind do so weakly or less than the wild type.
Experiments:
[1] = target: UGGT1 (in vitro IP-WB) (UniProt Q9NYU2); test: co-IP; in vitro IP-WB of cereblon and UGGT1, without and with UDP-glucose
[2] = target: UDP-glucose:glycoprotein glucosyltransferase 1 (UGGT1) (mouse (endogenous in NIT-1)) (UniProt Q6P5E4); test: co-IP; NIT1 cells, arginine depleted for 30 min, then 1 mM arginine for 0, 1, 3 and 24 h; lysates IPed with proinsulin or UGGT1 and blotted for DDB1 or HRD1
[3] = target: UDP-glucose:glycoprotein glucosyltransferase 1 (UGGT1) (mouse (endogenous in NIT-1)) (UniProt Q6P5E4); test: condition: only after administration of 1 mM arginine; co-IP; as a6, after administration of 1 mM arginine: IP of UGGT1, blot for HRD1

Chains of the proteins cited; added tags and fusions are not shown. Residues count along the entry.
UniProt Q9NYU2, residues 43-1555: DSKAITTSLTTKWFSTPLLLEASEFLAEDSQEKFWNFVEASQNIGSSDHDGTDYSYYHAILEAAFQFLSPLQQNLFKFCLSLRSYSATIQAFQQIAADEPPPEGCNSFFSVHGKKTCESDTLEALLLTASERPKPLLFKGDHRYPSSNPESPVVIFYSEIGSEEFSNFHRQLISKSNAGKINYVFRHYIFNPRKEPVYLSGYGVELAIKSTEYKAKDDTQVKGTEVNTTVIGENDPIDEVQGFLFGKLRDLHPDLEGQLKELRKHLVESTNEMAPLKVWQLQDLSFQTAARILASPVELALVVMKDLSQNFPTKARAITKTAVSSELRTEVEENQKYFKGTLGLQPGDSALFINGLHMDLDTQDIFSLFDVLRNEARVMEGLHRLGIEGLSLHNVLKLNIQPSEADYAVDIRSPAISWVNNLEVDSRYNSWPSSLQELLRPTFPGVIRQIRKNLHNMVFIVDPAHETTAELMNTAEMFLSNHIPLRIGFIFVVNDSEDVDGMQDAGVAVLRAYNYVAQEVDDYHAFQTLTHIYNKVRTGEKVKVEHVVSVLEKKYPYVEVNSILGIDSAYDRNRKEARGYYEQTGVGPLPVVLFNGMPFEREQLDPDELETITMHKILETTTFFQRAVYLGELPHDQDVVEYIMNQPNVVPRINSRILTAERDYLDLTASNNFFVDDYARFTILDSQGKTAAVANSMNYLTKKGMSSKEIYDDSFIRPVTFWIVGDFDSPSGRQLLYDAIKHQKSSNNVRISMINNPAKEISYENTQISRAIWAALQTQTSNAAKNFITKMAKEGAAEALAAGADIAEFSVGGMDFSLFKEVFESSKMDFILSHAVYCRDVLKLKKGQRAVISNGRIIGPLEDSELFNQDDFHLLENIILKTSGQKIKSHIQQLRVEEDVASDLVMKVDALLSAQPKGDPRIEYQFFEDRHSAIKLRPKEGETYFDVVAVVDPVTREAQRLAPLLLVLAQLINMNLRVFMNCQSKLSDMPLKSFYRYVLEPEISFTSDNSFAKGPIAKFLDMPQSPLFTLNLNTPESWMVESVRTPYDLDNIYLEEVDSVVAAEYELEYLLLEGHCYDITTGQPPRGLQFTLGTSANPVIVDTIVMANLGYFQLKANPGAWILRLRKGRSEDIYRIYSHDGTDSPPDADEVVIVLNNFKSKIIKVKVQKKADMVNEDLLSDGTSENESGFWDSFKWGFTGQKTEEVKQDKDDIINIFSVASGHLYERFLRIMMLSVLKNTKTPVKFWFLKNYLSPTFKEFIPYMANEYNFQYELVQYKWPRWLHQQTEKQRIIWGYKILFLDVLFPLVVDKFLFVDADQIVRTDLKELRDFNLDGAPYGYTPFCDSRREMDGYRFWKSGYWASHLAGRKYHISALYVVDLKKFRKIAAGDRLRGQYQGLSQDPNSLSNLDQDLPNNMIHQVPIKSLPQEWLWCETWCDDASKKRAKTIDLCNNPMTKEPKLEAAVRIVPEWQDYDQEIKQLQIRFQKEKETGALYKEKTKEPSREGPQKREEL
UniProt Q6P5E4, residues 43-1551: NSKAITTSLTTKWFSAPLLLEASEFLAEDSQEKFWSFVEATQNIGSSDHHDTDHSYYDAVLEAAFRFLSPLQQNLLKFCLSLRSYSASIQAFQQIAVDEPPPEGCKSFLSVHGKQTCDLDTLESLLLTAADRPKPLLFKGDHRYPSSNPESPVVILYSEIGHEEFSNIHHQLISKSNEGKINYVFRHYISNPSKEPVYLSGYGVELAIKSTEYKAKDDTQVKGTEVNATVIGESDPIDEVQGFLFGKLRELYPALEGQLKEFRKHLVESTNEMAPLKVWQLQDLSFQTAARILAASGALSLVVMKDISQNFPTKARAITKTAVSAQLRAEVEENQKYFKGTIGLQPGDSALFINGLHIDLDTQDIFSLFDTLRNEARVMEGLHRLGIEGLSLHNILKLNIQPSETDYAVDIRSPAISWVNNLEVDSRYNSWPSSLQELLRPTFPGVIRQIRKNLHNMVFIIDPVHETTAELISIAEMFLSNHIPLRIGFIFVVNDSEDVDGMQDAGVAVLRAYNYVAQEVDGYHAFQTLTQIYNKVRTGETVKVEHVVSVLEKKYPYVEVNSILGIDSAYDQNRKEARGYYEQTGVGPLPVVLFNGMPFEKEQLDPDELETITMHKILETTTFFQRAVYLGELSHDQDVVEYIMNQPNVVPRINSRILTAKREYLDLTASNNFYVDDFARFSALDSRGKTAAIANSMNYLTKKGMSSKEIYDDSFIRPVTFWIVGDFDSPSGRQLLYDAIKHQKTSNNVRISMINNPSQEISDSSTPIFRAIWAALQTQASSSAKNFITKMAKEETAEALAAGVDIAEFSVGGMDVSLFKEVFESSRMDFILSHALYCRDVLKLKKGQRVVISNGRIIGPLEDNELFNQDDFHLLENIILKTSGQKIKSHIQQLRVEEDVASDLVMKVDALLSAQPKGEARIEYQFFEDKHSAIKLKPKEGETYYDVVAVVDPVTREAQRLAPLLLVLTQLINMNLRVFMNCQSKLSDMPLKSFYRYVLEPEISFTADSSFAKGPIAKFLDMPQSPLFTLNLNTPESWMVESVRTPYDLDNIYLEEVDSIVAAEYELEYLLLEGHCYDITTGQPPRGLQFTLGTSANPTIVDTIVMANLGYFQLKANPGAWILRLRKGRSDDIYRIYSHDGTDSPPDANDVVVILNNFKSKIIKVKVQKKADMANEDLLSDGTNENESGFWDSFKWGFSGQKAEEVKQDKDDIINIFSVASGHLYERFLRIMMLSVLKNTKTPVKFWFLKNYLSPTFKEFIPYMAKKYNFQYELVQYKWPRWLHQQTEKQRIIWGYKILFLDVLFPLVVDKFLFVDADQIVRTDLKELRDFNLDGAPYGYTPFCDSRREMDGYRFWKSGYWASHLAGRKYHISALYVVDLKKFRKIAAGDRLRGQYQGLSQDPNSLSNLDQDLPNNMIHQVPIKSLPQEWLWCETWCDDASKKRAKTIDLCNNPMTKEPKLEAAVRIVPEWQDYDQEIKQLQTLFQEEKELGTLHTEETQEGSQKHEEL
UniProt Q96SW2: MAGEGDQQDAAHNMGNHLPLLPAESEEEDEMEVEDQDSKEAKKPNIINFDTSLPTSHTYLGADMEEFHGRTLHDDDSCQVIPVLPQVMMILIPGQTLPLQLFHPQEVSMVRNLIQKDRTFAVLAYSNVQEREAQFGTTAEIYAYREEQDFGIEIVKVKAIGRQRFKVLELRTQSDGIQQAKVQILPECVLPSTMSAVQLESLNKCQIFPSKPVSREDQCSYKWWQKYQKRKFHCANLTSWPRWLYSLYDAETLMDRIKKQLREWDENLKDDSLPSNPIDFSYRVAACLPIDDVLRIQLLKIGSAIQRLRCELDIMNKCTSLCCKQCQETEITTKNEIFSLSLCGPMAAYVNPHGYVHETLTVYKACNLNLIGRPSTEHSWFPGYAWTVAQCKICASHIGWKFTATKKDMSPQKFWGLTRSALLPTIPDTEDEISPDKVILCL
UniProt Q9DBY1: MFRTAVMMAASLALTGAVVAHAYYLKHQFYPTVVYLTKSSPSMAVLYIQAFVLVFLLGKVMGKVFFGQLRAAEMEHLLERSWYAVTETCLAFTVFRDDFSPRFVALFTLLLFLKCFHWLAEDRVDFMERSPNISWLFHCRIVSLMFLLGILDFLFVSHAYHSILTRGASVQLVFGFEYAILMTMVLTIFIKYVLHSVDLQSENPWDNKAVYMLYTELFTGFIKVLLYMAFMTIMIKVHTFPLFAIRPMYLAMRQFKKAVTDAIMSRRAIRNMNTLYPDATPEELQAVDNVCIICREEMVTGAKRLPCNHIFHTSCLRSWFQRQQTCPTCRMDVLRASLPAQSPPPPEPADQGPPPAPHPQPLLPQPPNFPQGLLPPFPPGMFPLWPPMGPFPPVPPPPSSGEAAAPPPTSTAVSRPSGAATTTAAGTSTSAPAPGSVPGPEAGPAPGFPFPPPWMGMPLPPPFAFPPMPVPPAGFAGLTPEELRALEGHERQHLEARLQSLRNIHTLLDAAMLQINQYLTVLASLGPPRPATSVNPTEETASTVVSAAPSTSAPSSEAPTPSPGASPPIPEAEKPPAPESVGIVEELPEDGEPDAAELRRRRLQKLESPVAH

**Q.** With “cereblon (in vitro; CRBN^WT) (from UniProt Q96SW2 1-442)” as the substance, how does the binding [1] read?
**A.** binds

**Q.** With “HMG-CoA reductase degradation 1 (HRD1) (from UniProt Q9DBY1 1-612)” as the substance, how does the binding [2] read?
**A.** binds

**Q.** What about the binding [3] of the same substance?
**A.** no binding
